Laboratory results published in PubChem BioAssay AID504834 (National Center for Advancing Translational Sciences (NCATS), 2011).
The whole screen tested about 320,000 compounds, of which about 22,000 (6.9%) were called active. The shares of active, inactive and inconclusive entries below differ from those in the screen. Calls follow the shape of the dose curve; as a rule, active = well fitted inhibition curve with a large enough effect; inconclusive = small, poorly fitted or top-dose-only effect, or another doubt; inactive = no such curve, though single readings can be large or run the other way. Potencies beside an inconclusive call are fits to weak or partial responses and may not hold up.

Experiment: Primary qHTS for delayed death inhibitors of the malarial parasite plastid, 96 hour incubation
Conditions: P. falciparum luciferase reporter growth; series mostly up to 28.7 µM
Method in brief: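 Erythrocytes infected with luciferase-expressing P. falciparum were dispensed at 2% hematocrit and 0.05% parasitemia (final), then incubated with compounds 96 hours at 37 C in 5% CO2. Luminescence after detection reagent addition reported growth.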
Potency is read from the fitted curve at half-maximal effect.

SMILES | Potency
CC1(c2ccccc2)CC(C)(C)N(C(N)=O)c2ccccc21 (stereo not drawn) | inconclusive: 11.7 µM [inhibitor, single point]
Cc1ccc(N(CC(=O)N2CC(=O)Nc3ccccc32)S(=O)(=O)c2ccc3c(c2)OCCO3)cc1 | inconclusive: 5.22 µM [inhibitor, partial curve, poor fit]
CCOc1ccc(S(=O)(=O)N(CC)CC(=O)NCc2ccccn2)cc1C | inconclusive: 11.7 µM [inhibitor, single point]
Cc1ccccc1-n1c(SCC(=O)Nc2ccccc2)nc2nc3c(cc2c1=O)CCCC3 | inactive
CNC(=S)N1N=C(c2cccs2)CC1c1ccc(OC)cc1 (stereo not drawn) | inconclusive: 9.28 µM [inhibitor, single point]
CC1CCCC(C)N1C(=O)COC(=O)Cc1ccc(F)cc1 (stereo not drawn) | inactive
C=C[C@]1(C)C[C@H]1[C@H](NP(=O)(c1ccccc1)c1ccccc1)c1ccccc1 | inconclusive: 11.7 µM [inhibitor, single point]
CC1(C)Oc2ccc(C(=O)NN)cc2NC1=O | inactive
Cc1noc(C)c1COc1ccccc1C(=O)NNC(=O)c1ccccc1F | inconclusive: 18.5 µM [inhibitor, single point]
CC(C)OC(=O)Cc1nc2sc(-c3ccccc3)cc2c(=O)[nH]1 | inactive
CN(CCc1ccccn1)C(=O)CCC1CCCN(C(=O)c2c(F)ccc(F)c2F)C1 (stereo not drawn) | inconclusive: 18.5 µM [inhibitor, single point]
Cc1ccc(NC(=O)COc2ccccc2)cc1Cl | inactive
CCOc1ccc(CN(C)C(=O)c2ccc(NS(=O)(=O)c3ccc4[nH]c(=O)[nH]c4c3)cc2)cc1 | inconclusive: 10.4 µM [inhibitor, single point]
NC(=O)NC(=O)CSc1nc(-c2ccccc2)c(-c2ccccc2)n1CC1CCCO1 (stereo not drawn) | inconclusive: 18.5 µM [inhibitor, single point]
COc1cccc2cc(-c3cc(=O)oc4ccc(OCC(C)=O)cc34)oc12 | inconclusive: 11.7 µM [inhibitor, single point]
O=C(Nc1ccccc1O)/C(=C\c1ccccc1)NC(=O)c1ccccc1 | inactive
CCn1c(SCC(=O)Nc2c(C)n(C)n(-c3ccccc3)c2=O)nnc1-c1cccc(C)c1 | inconclusive: 5.22 µM [inhibitor, partial curve]
OC1(c2cccs2)CN(c2ccc(Cl)cc2)C2=[N+]1CCCC2 (stereo not drawn) | inconclusive: 6.57 µM [inhibitor, single point]
O=C1CSC(c2ccccc2[N+](=O)[O-])N1c1ccc(O)cc1 (stereo not drawn) | inconclusive: 5.22 µM [inhibitor, partial curve, poor fit]
O=C(NC1CCCCC1)C(c1ccc2ncccc2c1)N(Cc1cccs1)C(=O)c1cccs1 (stereo not drawn) | inconclusive: 2.94 µM [inhibitor, full curve, poor fit]
CC(C)CNC(=O)c1ccccc1NC(=O)c1ccc(CN2CCOCC2)cc1 | inactive
CCCOc1ccc(/C=C/c2[nH]c(=O)[nH]c(=O)c2[N+](=O)[O-])cc1OCC | inconclusive: 10.4 µM [inhibitor, partial curve, poor fit]
COc1ccc(C2Nc3ccccc3C(=O)N2NC(=O)c2ccccc2)cc1OC (stereo not drawn) | inconclusive: 11.7 µM [inhibitor, single point]

Of the compounds above, 3 contain an aryl methoxy group:
SMILES | Potency
CNC(=S)N1N=C(c2cccs2)CC1c1ccc(OC)cc1 (stereo not drawn) | inconclusive: 9.28 µM [inhibitor, single point]
COc1cccc2cc(-c3cc(=O)oc4ccc(OCC(C)=O)cc34)oc12 | inconclusive: 11.7 µM [inhibitor, single point]
COc1ccc(C2Nc3ccccc3C(=O)N2NC(=O)c2ccccc2)cc1OC (stereo not drawn) | inconclusive: 11.7 µM [inhibitor, single point]

(more compounds)

SMILES | Potency
CCC(=O)/C=C1\Sc2ccc(OC)cc2N1CCO | inactive
Cc1cc(C(C)(C)C)ccc1OCCOCCN1CCCC1 | inconclusive: 13.1 µM [inhibitor, partial curve, poor fit]
O=C(CN1C(=O)S/C(=C/c2cccs2)C1=O)N1CCCC1 | inactive
CC(=O)N1c2ccc(S(=O)(=O)NCC3CCC(C(=O)N4CC(C)CC(C)C4)CC3)cc2CC1C (stereo not drawn) | inconclusive: 10.4 µM [inhibitor, partial curve, poor fit]
CCCCc1nc(N)c(C#N)c(-c2ccco2)c1CCC | inconclusive: 18.5 µM [inhibitor, single point]
CC1CCCN(S(=O)(=O)c2ccc(C(=O)Nc3nnc(-c4ccccc4Cl)o3)cc2)C1 (stereo not drawn) | inconclusive: 0.0738 µM [inhibitor, full curve, poor fit]
CCn1nc(NS(=O)(=O)c2ccc(NC(C)=O)cc2)c2cc3cccc(C)c3nc21 | inconclusive: 18.5 µM [inhibitor, single point]
O=C(NCC1CCCC(CNC(=O)N2CCc3ccccc32)C1)N1CCc2ccccc21 (stereo not drawn) | active: 5.86 µM
Cc1ccc(NC(=O)CCC2CC(C)(C)OC2=O)cc1 (stereo not drawn) | inactive
CCOC(=O)C1=C(CC)Nc2ccccc2N=C1NC(=O)c1ccc(C)c(S(=O)(=O)N2CCOCC2)c1 | active: 10.4 µM
NNC(=O)c1[nH]c2ccc([N+](=O)[O-])cc2c1-c1ccccc1 | inconclusive: 14.7 µM [inhibitor, partial curve, poor fit]
COc1cc(N2C(=O)C=CC2=O)c(OC)cc1Cl | inconclusive: 0.0033 µM [inhibitor, full curve, poor fit]
COc1ccccc1NS(=O)(=O)c1cccc(NC(=O)NC2CCCCC2)c1 | inactive
CC1CCN(C(=S)Nc2ccc(SC(F)F)cc2)CC1 | inactive
CCCn1c(-c2cc(OC)c(OC)c(OC)c2)nc2c1c(=O)[nH]c(=O)n2Cc1ccccc1 | inconclusive: 9.28 µM [inhibitor, single point]
O=C(O)CCCCCn1c(SCc2cc(=O)n3ccccc3n2)nc2ccsc2c1=O | inconclusive: 14.7 µM [inhibitor, single point]
CN(C)C(CNC(=O)c1ccc([N+](=O)[O-])cc1Cl)c1ccco1 (stereo not drawn) | inconclusive: 18.5 µM [inhibitor, single point]
Cc1ccc(C(=O)C[n+]2cc(-c3ccccc3)n3c2CCCCC3)cc1 | active: 0.415 µM
O=C(Cc1ccc([N+](=O)[O-])cc1)NC(C(=O)O)C(O)c1cccc([N+](=O)[O-])c1 (stereo not drawn) | inconclusive: 9.28 µM [inhibitor, single point]
COc1ccc(/C=N/Nc2nnc(-c3ccccc3)c(=O)[nH]2)cc1 | inconclusive: 18.5 µM [inhibitor, single point]
COc1ccccc1N1CCN(C(=O)c2c(-c3ccccc3Cl)noc2C)CC1 | inconclusive: 13.1 µM [inhibitor, partial curve, poor fit]
COc1ccc(NC(=O)COc2cccc3c2OC(C)(C)C3)c(OC)c1 | active: 10.4 µM
O=C(Nc1ccc(O)c2c(=O)cc(-c3ccccc3Cl)oc12)c1cccs1 | inconclusive: 18.5 µM [inhibitor, single point]

SMILES | Potency
Cn1cc(CC(=O)Nc2cccc(C#N)c2)c2ccccc21 | inconclusive: 1.85 µM [inhibitor, partial curve, poor fit]
Cc1cc2cc(CNC(=S)Nc3ccc(OC(F)(F)F)cc3)ccc2[nH]1 | inactive
O=C(CSc1nc2ccccc2n1Cc1ccccc1Cl)N/N=C/c1ccccc1C(=O)O | active: 5.22 µM
O=C(CSCC(=O)Nc1cccc2ccccc12)Nc1cccc2ccccc12 | inactive
CCOc1ccc(NC(=O)COC(=O)c2cc(=O)c3ccccc3o2)cc1 | inconclusive: 2.94 µM [inhibitor, partial curve, poor fit]
O=[N+]([O-])c1cc(F)c(N2CCCC2)cc1N1CCNCC1 | inactive
Cc1ccc(C)c(NC(=O)CSc2nc(=O)n(CCN3CCOCC3)c3c2CCCC3)c1 | inconclusive: 18.5 µM [inhibitor, single point]
O=C1NN(c2cccc(Br)c2)C(=O)/C1=C\c1ccc(N2CCOCC2)cc1 | inconclusive: 9.28 µM [inhibitor, single point]
CC(=O)O/N=C/c1c(NCc2ccccc2)nc2c(C)cccn2c1=O | inconclusive: 18.5 µM [inhibitor, partial curve, poor fit]
CC(=O)c1cccc([N+](=O)[O-])c1 | inactive
CN(CC(=O)Nc1ccccc1C(F)(F)F)C(=O)C1CCN(S(=O)(=O)c2ccc3c(c2)OCCO3)CC1 | inactive
N#CC(C#N)=C(N)CSc1cccc[n+]1[O-] | active: 11.7 µM
COc1ccc(Br)cc1CNCCSc1nnnn1C | inconclusive: 4.15 µM [inhibitor, partial curve, poor fit]
CCCC(=O)N(CCc1ccc(OC)cc1)Cc1nc2ccccc2c(=O)[nH]1 | active: 10.4 µM
Cc1ccccc1-c1nc(-c2ccc(NC(=O)c3ccc(Br)o3)cc2)no1 | inconclusive: 14.7 µM [inhibitor, partial curve]
O=C1C(c2ccncc2)N(CCC2=CCCCC2)C(=O)CN1C1CCCCC1 (stereo not drawn) | inconclusive: 0.0415 µM [inhibitor, full curve, poor fit]
Cc1nc2sc(C(c3ccco3)N3CCC(Cc4ccccc4)CC3)c(O)n2n1 (stereo not drawn) | inconclusive: 10.4 µM [inhibitor, partial curve, poor fit]
Cc1ccc(C(=O)Nc2cc(S(=O)(=O)N3CCOCC3)ccc2N2CCCC2)cc1 | inactive
CN(C(=O)c1ccncc1)c1nnc(-c2cccnc2)s1 | inconclusive: 11.7 µM [inhibitor, single point]
CSCC[C@H](NC(=O)C1CCN(S(=O)(=O)c2ccc(C)cc2)CC1)C(=O)NCc1ccco1 | inconclusive: 14.7 µM [inhibitor, single point]
CCOc1ncccc1C(=O)OCC(=O)NCCc1ccc(S(N)(=O)=O)cc1 | inactive
COc1ccc(-c2nc(-c3ccc(O)cc3O)cs2)cc1OC | inconclusive: 14.7 µM [inhibitor, partial curve]
